Results on four molecules are retold here after PMC12992792.

By UniProt entry, the sequences of proteins in these tests, tags left out.
UniProt O46036: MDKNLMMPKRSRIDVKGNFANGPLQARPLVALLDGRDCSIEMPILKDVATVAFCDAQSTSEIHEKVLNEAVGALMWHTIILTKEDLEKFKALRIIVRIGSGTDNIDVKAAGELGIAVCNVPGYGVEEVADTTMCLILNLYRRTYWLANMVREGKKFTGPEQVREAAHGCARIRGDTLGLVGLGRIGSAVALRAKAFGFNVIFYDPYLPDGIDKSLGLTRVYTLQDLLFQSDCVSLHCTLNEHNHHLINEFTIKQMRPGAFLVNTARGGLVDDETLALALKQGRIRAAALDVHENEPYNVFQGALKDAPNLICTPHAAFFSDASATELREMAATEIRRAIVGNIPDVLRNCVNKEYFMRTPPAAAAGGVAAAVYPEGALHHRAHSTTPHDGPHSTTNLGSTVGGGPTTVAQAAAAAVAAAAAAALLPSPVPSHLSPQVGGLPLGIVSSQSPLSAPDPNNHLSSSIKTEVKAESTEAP
UniProt Q27268: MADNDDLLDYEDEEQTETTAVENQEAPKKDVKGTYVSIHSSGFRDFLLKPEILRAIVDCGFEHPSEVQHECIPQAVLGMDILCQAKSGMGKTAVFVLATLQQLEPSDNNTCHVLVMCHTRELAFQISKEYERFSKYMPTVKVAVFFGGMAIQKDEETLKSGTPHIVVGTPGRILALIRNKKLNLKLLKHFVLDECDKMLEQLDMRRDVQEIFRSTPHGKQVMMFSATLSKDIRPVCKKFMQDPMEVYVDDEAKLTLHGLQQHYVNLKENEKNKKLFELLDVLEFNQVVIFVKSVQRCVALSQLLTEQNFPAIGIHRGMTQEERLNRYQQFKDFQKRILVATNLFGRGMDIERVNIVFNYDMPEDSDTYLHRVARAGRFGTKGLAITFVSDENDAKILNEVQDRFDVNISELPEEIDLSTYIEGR

Common to all, as to assay: two-hybrid; all-versus-all matrix screen in S. cerevisiae; every protein as bait (DBD) and prey (AD), tagged N- or C-terminally, eight configurations a pair; mating on YPDA, selection on -His/-Trp/-Leu/-Ura/-Ade, 30 °C, four to seven days; replication score cutoff 0.75
For assay [1], the target named is D. melanogaster C-terminal Binding Protein (D. melanogaster) (UniProt O46036).
The target in assay [2] is D. melanogaster UAP56 (D. melanogaster) (UniProt Q27268).
Assay [3] concerns the target D. melanogaster C-terminal Binding Protein (D. melanogaster) (UniProt O46036). This is another data set of the same source.
For assay [4], the target named is T1, D. melanogaster Deadlock (D. melanogaster), Q9VIF5.
T1 chain: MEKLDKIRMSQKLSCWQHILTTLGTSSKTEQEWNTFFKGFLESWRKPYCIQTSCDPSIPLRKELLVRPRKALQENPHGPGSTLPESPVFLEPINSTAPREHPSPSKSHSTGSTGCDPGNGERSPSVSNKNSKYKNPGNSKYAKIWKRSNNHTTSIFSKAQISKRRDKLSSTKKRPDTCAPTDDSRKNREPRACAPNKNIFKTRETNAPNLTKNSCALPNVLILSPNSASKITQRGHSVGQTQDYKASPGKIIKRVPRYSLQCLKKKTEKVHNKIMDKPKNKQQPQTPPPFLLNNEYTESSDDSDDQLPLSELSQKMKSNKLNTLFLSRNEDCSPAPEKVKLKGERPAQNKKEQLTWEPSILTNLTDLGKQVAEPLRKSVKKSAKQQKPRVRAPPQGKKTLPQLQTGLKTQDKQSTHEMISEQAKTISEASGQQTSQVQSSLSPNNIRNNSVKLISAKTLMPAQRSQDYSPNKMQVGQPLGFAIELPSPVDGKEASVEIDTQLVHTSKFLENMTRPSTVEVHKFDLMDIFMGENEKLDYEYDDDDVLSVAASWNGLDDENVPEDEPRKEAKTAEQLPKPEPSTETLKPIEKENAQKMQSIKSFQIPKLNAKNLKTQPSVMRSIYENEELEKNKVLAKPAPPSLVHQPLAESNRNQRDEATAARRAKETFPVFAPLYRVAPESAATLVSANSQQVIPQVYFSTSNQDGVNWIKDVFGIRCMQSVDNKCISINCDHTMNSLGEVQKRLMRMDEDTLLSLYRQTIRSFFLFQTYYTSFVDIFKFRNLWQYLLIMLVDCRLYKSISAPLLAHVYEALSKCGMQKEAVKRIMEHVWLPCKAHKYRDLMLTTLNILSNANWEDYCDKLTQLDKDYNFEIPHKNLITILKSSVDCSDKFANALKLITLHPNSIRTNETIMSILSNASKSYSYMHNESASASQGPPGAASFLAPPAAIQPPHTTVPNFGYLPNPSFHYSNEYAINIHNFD
The conditions noted are these: remark: other sources report otherwise.

Where two headings read alike, the source gives them in different places. These are yes or no findings as the source states them, for the method shown. Some entries that bind do so weakly or less than the wild type.

Regarding “D. melanogaster C-terminal Binding Protein (from UniProt O46036 1-476)”, the binding result in assay [1] was “binds”.

Take “D. melanogaster UAP56 (from UniProt Q27268 1-424)”: the binding entry in assay [2] is “binds”.

B1: D. melanogaster Cutoff (protein, UniProt Q9V629 1-384)
chain: MNSNYTILNIRAHSWAEKDNLVFPTITKPVSNGWFAWSPIGQFEPNSQKVPYVVVPPSIKFPISLRYKDSPPKLEKKPNIFLDNMLQYIESSSYMYVMVRNNQQAQLNANIVCTSEVLELMMCAPYEKKTGWSLGVTRYRNTMYICRIDVEQPDPIDQDNLKRAMQEFWLRNLRTHCVFENGIKMHQHNQSSEEHLRFHGVFSFDLNGNRVLFDSPVLAEMPSTTLNGSALSWVDLQIRPMFMSRLDWPEHNRTEALKWWVKCFLLGIESLYIARRDENAHVHNIEKTLVRDLWKSCEKDWSPTVCANFMIYLLNCISQVMAPIDCPSTVYLFQFDASQGTVSYKGLRGRNQYTFVSDWFRMMLDDHTNDMCKTPNLQTMSSIV
For the molecule B1, in assay [3], the binding entry was “no binding”.

B2: D. melanogaster Moonshiner, Q9VYQ0 1-172 (protein)
chain: MAKILPTDGIWIPESCSFPEDVMIDMMEGLFRDVPNLTHKEYLALADLQSRWMAKLANRQPESNPLPPKPKKRKKIAPKKQDQPVEEKGSEVDIYDVDDNEMVNNRIYIPRLRSAWRARYFNIMMRAFVIKRGLLNKHINWQILDKIMAAPDAEGQAELQAFVDKVVAGQEM
B2: the binding entry in assay [4] is recorded as “no binding”.
